In patent publication US6750224B1, “Antibacterial optically pure benzoquinolizine carboxylic acids, processes, compositions and methods of treatment” (priority 1999, dated 2004):

Experiments:
[1] = test system: S.aureus strain bearing Nor A efflux pump; format: cell-based; conditions: Nor A efflux pump strain vs strain devoid of efflux pump
Procedure: Using this set of MIC values, % loss in potency due to efflux was calculated for each of the fluoroquinolone in Table 5

[2] = test system: S.aureus with and without efflux pump; experiment: Mouse model of infection, 50% protective dose; format: in vivo; conditions: S.aureus with Nor A efflux pump vs without

O=C(O)c1cn(C2CC2)c2cc(N3CCNCC3)c(F)cc2c1=O [Ciprofloxacin]
% loss in potency for S. aureus bearing Efflux pump [1]: 94% | Fold Increase in 50% protective dose [2]: >10 fold
